Results published in publication PMC12431657, “Discovery and mechanistic insights of dibenzoylmethane as a broad spectrum inhibitor of coronavirus” (PLOS Pathogens, 2025).
Structures can show the parent of a compound that is named as a salt. Where two headings read alike, the source gives them in different places. About 60 (2%) of roughly 3,300 compounds showed an effect of 50% or more. The list shows a part of the results.

Tested on: HCoV-OC43
Parameters: species or system RD; HTS, protection from HCoV-OC43 induced cell death, luminescent cell viability (CellCounting-Lite 2.0), inhibition rate
Settings: 24 h post infection, 1 h compound pre-incubation, 10 µM, inhibitor

`O=c1cc(-c2ccc(O)c(O)c2)oc2cc(O)c([C@@H]3O[C@H](CO)[C@@H](O)[C@H](O)[C@H]3O)c(O)c12` [Isoorientin] was tested, and the “OC43 Inhibition rate” value was 0.3%.
`CCOC(=O)/C=C/c1ccc(O)cc1` [p-Coumaric Acid Ethyl Ester] was tested, and the “OC43 Inhibition rate” value was 0%.
For `CC(C)C[C@@H](O)C(=O)O` [(R)-Leucic acid], the “OC43 Inhibition rate” value was -0.7%.
`C[C@@H]1O[C@@H](OC[C@H]2O[C@@H](Oc3c(-c4ccc(O)cc4)oc4cc(O)cc(O)c4c3=O)[C@H](O[C@@H]3O[C@H](CO)[C@@H](O)[C@H](O)[C@H]3O)[C@@H](O)[C@@H]2O)[C@H](O)[C@H](O)[C@H]1O` [Kaempferol-3-O-(2''-O-β-D-glucopyl)-β-D-rutinoside] was tested, and the “OC43 Inhibition rate” value was 0.7%.
With `CC(C)=CCC[C@@](O)(CO[C@@H]1O[C@H](CO)[C@@H](O)[C@H](O)[C@H]1O)[C@H]1CC[C@]2(C)[C@@H]1CC[C@@H]1[C@@]3(C=O)CC[C@H](O[C@@H]4OC[C@H](O)[C@H](O[C@@H]5OC[C@@H](O)[C@H](O)[C@H]5O)[C@H]4O[C@@H]4O[C@@H](C)[C@H](O)[C@@H](O)[C@H]4O)C(C)(C)[C@@H]3CC[C@]12C` [Gypenoside XLIX] the “OC43 Inhibition rate” value was -0.4%.
In the case of `COc1ccc(C2CC(=O)c3c(O)cc(O)cc3O2)cc1O` (racemic) [(Rac)-Hesperetin], the “OC43 Inhibition rate” value was 0.5%.
With `C/C=C(/C)C(=O)O[C@@H]1c2c(ccc3ccc(=O)oc23)OC(C)(C)[C@@H]1OC(=O)/C(C)=C\C` [(-)-Anomalin] the “OC43 Inhibition rate” value was 32.9%.
In the case of `COc1cc(O)c2c(c1)O[C@H](c1ccccc1)CC2=O` [Pinostrobin], the “OC43 Inhibition rate” value was 1%.
In the case of `C=C[C@H]1[C@H](O[C@@H]2O[C@H](CO)[C@@H](O)[C@H](O)[C@H]2O)OC=C(C(=O)OC)[C@H]1CCOC(=O)c1cccc(O[C@@H]2O[C@H](CO)[C@@H](O)[C@H](O)[C@H]2O)c1O` [Depressine], the “OC43 Inhibition rate” value was 0.1%.
In the case of `Cc1cccc2c3c(ccc12)C1=C(C(=O)C3=O)[C@@H](C)CO1` [Dihydrotanshinone I], the “OC43 Inhibition rate” value was 1%.
With `O=C1CCC[C@@H]2[C@H]3CCCN4CCC[C@@H](CN12)[C@H]34` [Allomatrine] the “OC43 Inhibition rate” value was 2.9%.
With `COC(=O)Cc1c[nH]c2ccccc12` [Methyl 2-(1H-indol-3-yl)acetate] the “OC43 Inhibition rate” value was -0.1%.
In the case of `C[C@]12CC[C@@H]3c4ccc(O)cc4CC[C@H]3[C@@H]1C[C@@H](O)[C@@H]2O` [Estriol], the “OC43 Inhibition rate” value was -0.2%.
`Cc1ccc(CO)o1` [5-Methyl-2-furanmethanol] was tested, and the “OC43 Inhibition rate” value was -2.2%.
In the case of `CC(=O)OC[C@H]1O[C@@H](OC[C@H]2O[C@@H](OC(=O)[C@]34CCC(C)(C)C[C@H]3C3=CC[C@@H]5[C@@]6(C)CC[C@H](O[C@@H]7OC[C@H](O)[C@H](O)[C@H]7O[C@@H]7O[C@H](CO)[C@@H](O)[C@H](O)[C@H]7O)C(C)(C)[C@@H]6CC[C@@]5(C)[C@]3(C)CC4)[C@H](O)[C@@H](O)[C@@H]2O)[C@H](O)[C@@H](O)[C@@H]1O[C@@H]1O[C@@H](C)[C@H](O)[C@@H](O)[C@H]1O` [Acanthopanaxoside B], the “OC43 Inhibition rate” value was 7.1%.
In the case of `O=C(/C=C/c1ccc(O)cc1)c1ccc(O[C@@H]2O[C@H](CO)[C@@H](O)[C@H](O)[C@H]2O)cc1O` [Neoisoliquiritin], the “OC43 Inhibition rate” value was 0.2%.
In the case of `Cc1cnccn1` [2-Methylpyrazine], the “OC43 Inhibition rate” value was 3.3%.
In the case of `COc1c(/C=C/C(=O)c2ccc(O)cc2)ccc(O)c1O` [Licochalcone B], the “OC43 Inhibition rate” value was 45.6%.
In the case of `O=C(O)[C@@H]1CCN1` [L-Azetidine-2-carboxylic acid], the “OC43 Inhibition rate” value was -0.5%.
`COc1cc([C@H]2Oc3ccc(-c4cc(=O)c5c(O)cc(O)cc5o4)cc3O[C@@H]2CO)ccc1O` (racemic) [(Rac)-Hydnocarpin] was tested, and the “OC43 Inhibition rate” value was 0%.
With `C=CCS[S+]([O-])CC=C` (stereo not shown) [Allicin] the “OC43 Inhibition rate” value was 0.3%.
`CCCCCC(=O)CC(=O)NC1CCOC1=O` (racemic) [N-(3-Oxooctanoyl)-DL-homoserine lactone] was tested, and the “OC43 Inhibition rate” value was 8.5%.
For `O=c1c(O)c(-c2ccc(O)c(O)c2)oc2cc(O[C@@H]3O[C@H](CO)[C@@H](O)[C@H](O)[C@H]3O)cc(O)c12` [Quercimeritrin], the “OC43 Inhibition rate” value was -1.1%.
`CC(C)=CCC/C(C)=C/CC/C(C)=C/CC/C(C)=C/CC1=C(C)C(=O)c2ccccc2C1=O` [Menaquinone-4] was tested, and the “OC43 Inhibition rate” value was -0.1%.
In the case of `CC(=O)N[C@@H]1[C@@H](O)[C@H](O)[C@@H](CO)O[C@@H]1O` [N-Acetyl-D-glucosamine], the “OC43 Inhibition rate” value was 0%.
With `CN1[C@H]2C[C@H](OC(=O)[C@H](CO)c3ccccc3)C[C@@H]1[C@@H](O)C2` [Anisodamine] the “OC43 Inhibition rate” value (OC43 Inhibition rate, 24 h) was 3.1%.
`CC(C)(O)[C@H](O)COc1c2ccoc2cc2oc(=O)ccc12` [Oxypeucedanin hydrate] was tested, and the “OC43 Inhibition rate” value was -1.1%.
`Cc1cn([C@H]2C[C@H](O)[C@@H](COP(=O)(O)O)O2)c(=O)[nH]c1=O` [Thymidine-5'-monophosphate (disodium) salt] was tested, and the “OC43 Inhibition rate” value was 1.4%.
In the case of `CCCCCCCC(=O)CCc1ccc(O)c(OC)c1` [Paradol], the “OC43 Inhibition rate” value was 45.1%.
`CC(=O)N[C@@H](Cc1ccccc1)C(=O)O` [N-Acetyl-L-phenylalanine] was tested, and the “OC43 Inhibition rate” value was -0.3%.
With `COc1cc2c(cc1OC)-c1cc3ccc4c(c3c[n+]1CC2)OCO4` [Epiberberine (chloride)] the “OC43 Inhibition rate” value was 0.9%.
In the case of `CCCCCCCCCCCCCC(=O)OCC(O)CO` (stereo not shown) [1-Monomyristin], the “OC43 Inhibition rate” value was -1.3%.
With `O=c1c(O[C@@H]2O[C@H](CO)[C@@H](O)[C@H](O)[C@H]2O[C@@H]2OC[C@@H](O)[C@H](O)[C@H]2O)c(-c2ccc(O)cc2)oc2cc(O)cc(O)c12` [Leucoside] the “OC43 Inhibition rate” value was 2.1%.
In the case of `C[C@@H]1CC[C@@]2(OC1)O[C@H]1C[C@H]3[C@@H]4CC[C@@H]5C[C@@H](O)CC[C@]5(C)[C@H]4CC[C@]3(C)[C@H]1[C@@H]2C` [Smilagenin], the “OC43 Inhibition rate” value was 6.5%.
In the case of `CCCCC1OC(=O)c2ccccc21` (stereo not shown) [Butylphthalide], the “OC43 Inhibition rate” value was 0.1%.
With `NCCS(=O)O` [Hypotaurine] the “OC43 Inhibition rate” value was -9%.
For `O=C1c2ccccc2C(=O)c2cc(O)ccc21` [2-Hydroxyanthraquinone], the “OC43 Inhibition rate” value was 5.4%.
